Assay results reported in US20040091907A1.
Results are given in words; binding and its absence hold for the method and conditions named. Binding seen in cells or lysates may run through a third protein. Some entries that bind do so weakly or less than the wild type. Tags and fused reporters may be left off the sequences shown.

Sequences of proteins named here, by UniProt entry; tags and fusion partners are left off. A change or cut given only in a name is not applied to a line headed by its entry. A line that says so, or that is headed by a name, gives the form on record, which may keep a tag or linker. Residues count along the entry.
UniProt O96013: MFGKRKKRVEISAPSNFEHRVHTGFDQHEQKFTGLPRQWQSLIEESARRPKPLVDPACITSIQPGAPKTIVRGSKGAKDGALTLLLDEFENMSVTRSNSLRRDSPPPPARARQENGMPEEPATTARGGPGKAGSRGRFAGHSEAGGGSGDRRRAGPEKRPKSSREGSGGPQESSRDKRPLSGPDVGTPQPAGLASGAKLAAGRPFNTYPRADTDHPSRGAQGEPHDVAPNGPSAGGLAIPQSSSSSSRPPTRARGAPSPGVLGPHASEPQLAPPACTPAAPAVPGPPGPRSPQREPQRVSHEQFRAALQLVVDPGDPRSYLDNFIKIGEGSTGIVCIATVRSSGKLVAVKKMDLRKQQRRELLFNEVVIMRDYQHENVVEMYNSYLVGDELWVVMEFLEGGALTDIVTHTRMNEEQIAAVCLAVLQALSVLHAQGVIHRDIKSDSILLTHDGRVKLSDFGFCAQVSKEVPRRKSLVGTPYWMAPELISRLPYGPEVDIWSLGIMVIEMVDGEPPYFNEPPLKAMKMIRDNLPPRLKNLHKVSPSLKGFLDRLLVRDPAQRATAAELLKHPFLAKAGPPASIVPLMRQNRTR
myc-tagged PAK4 kinase domain (amino acids 291-591): residues 291-591 of O96013

What was measured:
[1] = biological target: full-length myc-tagged PAK4 protein (human) (UniProt O96013); assay: GST pull-down from 293T cell extracts, Western blot with anti-myc
[2] = biological target: full-length myc-tagged PAK4 protein (human) (UniProt O96013); assay: GST pull-down on glutathione beads from 293T lysates, myc immunoblot
[3] = biological target: myc-tagged PAK4 kinase domain (amino acids 291-591) (human) (UniProt O96013); assay: as above

Measured: binding

B1: GST-GEF-H1S (aa763-921) (protein, not shown: a dimerising Fc or GST)
chain: LRESEQARALLEREAEEARRQLAALGQTEPLPAEAPWARRPVDPRRRSLPAGDALYLSFNPPQPSRGTDRLDLPVTTRSVHRNFEDRERQELGSPEERLQDSSDPDTGSEEEGSSRLSPPHSPRGETLAETWTRDFTRMQDIPEETESRDGEAVASES
binds: all assays above
